# The other results are listed elsewhere or left out. Shown are side measurements of this screen, not its main read-out; they come without a call. The list favours compounds with an active or inconclusive main result. The note in brackets gives the kind of curve behind each potency; many fits are weak.
# Assay: qHTS Assay for Lipid Storage Modulators in Drosophila S3 Cells;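 for cell number change: cells counted by Cell Tracker Red CMTPX staining in the red channel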
# Settings: BODIPY lipid droplet fluorescence, 18-24 h; for cell number change: measured here: cell count max response, cells fed with added oleic acid
# How it was run: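 Laser-scanning cytometry quantifies lipid droplet accumulation (500–530 nm total intensity; droplet/cell object ratio) in oleic acid-fed (400 uM added) Drosophila S3 cells treated with a concentration series. 20 uM Triacsin C defined 100% inhibition.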
# [1] = measured here: cell number channel AC50, cells fed with added oleic acid
# [2] = measured here: lipid fluorescence (Fed channel) AC50, cells fed with added oleic acid
Structure (SMILES),AC50 [1],cell number change [%],AC50 [2]
Cc1ccc(-n2nnnc2SCC(=O)N2CCc3ccccc3C2)c(C)c1,"6.51 µM [rising, single point]",,
COC(=O)c1ccc(COC(=O)CNS(=O)(=O)c2ccccc2)cc1,,12.1,"11.6 µM [rising, partial curve]"
O=C(NCC(c1ccco1)N1CCCC1)c1cccc(NS(=O)(=O)c2ccccc2)c1 (stereo unspecified),,23,"16.4 µM [rising, partial curve]"
CCc1ccc(NC2=NC(C(=O)NC3CCCCC3)CC(=O)N2)cc1 (stereo unspecified),,-6.55,"1.84 µM [falling, full curve]"
O=C(CN1CCN(S(=O)(=O)c2ccc(F)cc2)CC1)Nc1ccccc1C(=O)NC1CC1,,25,"0.13 µM [rising, full curve, poor fit]"
CCc1n[nH]c(=S)n1N=C1CCC(C)CC1 (stereo unspecified),,-10.2,
Cc1ccc(C(=O)COC(=O)c2cn3ccccc3n2)cc1,"25.9 µM [rising, single point]",35.1,
O=C(COC(=O)c1ccc(S(=O)(=O)N2CCCC2)cc1)NCc1cccs1,"32.6 µM [rising, single point]",31.4,
CCOC(=O)Nc1sc(NS(=O)(=O)c2ccc(C)cc2)nc1C,"29.1 µM [rising, single point]",36.8,
Cn1nc(C(F)(F)F)c(CO)c1Sc1ccc(F)cc1,"0.116 µM [falling, full curve, poor fit]",7.69,
Cn1cc(CN2CCC(C(O)c3cccs3)CC2)c(-c2cccc(Cl)c2)n1 (stereo unspecified),,3.99,"11.6 µM [rising, single point]"
CCN1C(=O)/C(=C2/C(=O)N3c4c(cc(OC(C)=O)cc42)C(C)=CC3(C)C)SC1=S,"0.731 µM [falling, full curve, poor fit]",-20.6,
CCc1ccc(NC(=O)c2cc3c(C)nc4ccccc4c3o2)cc1,,6.37,"4.61 µM [rising, single point]"
O=C(Cc1cccs1)Nc1cc(SCCO)cc([N+](=O)[O-])c1,"18.4 µM [rising, single point]",31.6,"14.6 µM [rising, partial curve]"
CCOC(=O)c1c(C)[nH]c(C(=O)COC(=O)c2cn(CC)c3nc(C)ccc3c2=O)c1C,,9.46,
CCCCNc1ccc(S(N)(=O)=O)cc1[N+](=O)[O-],,,"16.4 µM [rising, single point]"
Cc1ccc(C)c(OCCC(=O)Nc2ccc3c(c2)OCO3)c1,"1.16 µM [falling, full curve, poor fit]",-36,
Cn1c(COc2nnc(-c3ccc(Cl)cc3)c3ccccc23)nc2ccccc21,,8.93,
COc1ccc(CCn2c(=N)c(C(=O)NCC3CCCO3)cc3c(=O)n4cccc(C)c4nc32)cc1 (stereo unspecified),,-3.98,"1.16 µM [falling, full curve]"
O=C(Cc1cccs1)N1CCN(C(=O)C2CCCO2)CC1 (stereo unspecified),,-104,
O=C(NN1C(=O)C2C(c3ccccc3)C=CC(c3ccccc3)C2C1=O)c1ccncc1 (stereo unspecified),,15.1,

Structure (SMILES),AC50 [1],cell number change [%],AC50 [2]
CC1=C(Nc2ccc(C(=O)O)cc2)C(=O)c2ccccc2C1=O,"29.1 µM [rising, single point]",69.7,
O=C(O)c1ccccc1-c1ccccc1C(=O)NCc1ccccc1F,,8.8,"20.6 µM [falling, single point]"
O=C(NCc1ccco1)c1ccc2c(c1)C(=O)N(Cc1ccccc1)C2=O,"2.59 µM [rising, partial curve]",,
Cc1ccc(CNC(=O)COC(=O)Cn2nc(C)c([N+](=O)[O-])c2C)cc1,"0.082 µM [falling, full curve, poor fit]",-8.62,
COc1ccc(OC)c(NC(=O)CCN2CCC(C)CC2)c1,"29.1 µM [falling, partial curve]",-185,"20.6 µM [falling, partial curve]"
Cc1cc(C)n(CC(O)COc2ccc(C(C)C)c(C)c2)n1 (stereo unspecified),,21.4,
Cc1ccc(-c2nnc(C)c(N3CCCC3)n2)cc1,,69.5,"3.66 µM [rising, full curve]"
NC(=O)c1ccc2c(=O)n3c(-c4cc(Cl)c(N)c(Cl)c4)csc3nc2c1,,-10.1,"0.291 µM [rising, full curve, poor fit]"
Cc1ccccc1C(=O)NNC(=S)NC(=O)COc1ccccc1,"0.731 µM [falling, full curve, poor fit]",13,"0.651 µM [falling, single point]"
N#Cc1c(NC(=O)CSc2ncc(-c3ccccc3)n2CC2CCCO2)sc2c1CCCC2 (stereo unspecified),"32.6 µM [rising, single point]",43.8,
O=C(NCc1ccc(OC(F)(F)F)cc1)C1CC2Cn3c(nc4ccccc43)C2N1c1ccccc1 (stereo unspecified),,9.28,
CCc1cc2c(SCC(=O)NCC3CCCO3)ncnc2s1 (stereo unspecified),,-26.9,"6.51 µM [falling, partial curve, poor fit]"
CC1CCN(S(=O)(=O)c2ccc(S(=O)(=O)NCc3ccccc3)cc2)CC1,,-17.8,"0.184 µM [falling, partial curve, poor fit]"
Cc1cc2c(=O)n(CC(=O)N3CCN(c4ccccc4)CC3)cnc2s1,,,"0.58 µM [falling, single point]"
O=C(COC(=O)/C=C/c1cccc(F)c1)Nc1ccccc1,"29.1 µM [rising, partial curve, poor fit]",131,
COc1ccccc1C(=O)Nc1ccc2c(c1)nc1n2CCN(C2CCCCC2)C1,,-18.7,"2.31 µM [falling, partial curve]"
C=CCC1(CC=C)CCCN1C(=O)c1cc(COc2ccc(C)nc2)on1,,-8.87,"29.1 µM [falling, single point]"
C/C(=N\Nc1nc(-c2ccccc2)cs1)c1cccs1,"3.66 µM [falling, full curve, poor fit]",-50,"0.366 µM [rising, partial curve, poor fit]"
O=P(c1ccccc1)(c1ccccc1)N(c1ccccc1)c1ccccc1,,-3.01,"29.1 µM [rising, single point]"
CC(C)NC(=O)c1ccc(NC(=O)CC2SC(N3CCCC3)=NC2=O)cc1 (stereo unspecified),"18.4 µM [falling, single point]",-53.7,"18.4 µM [falling, single point]"
COC(=O)c1ccc(NC(=O)N2CCOCC2)cc1,"3.26 µM [falling, partial curve]",,"1.16 µM [falling, full curve]"

Structure (SMILES),AC50 [1],cell number change [%],AC50 [2]
CCn1c(SCC(=O)OCc2ccccc2)nc2c1c(=O)n(C)c(=O)n2C,"29.1 µM [falling, single point]",-45.5,
CC1CCCN(C(=O)C2CCN(CCCc3ccccc3)CC2)C1 (stereo unspecified),,-2.46,
COc1ccc(OC)c(NC(=O)C2CC2c2ccccc2)c1 (stereo unspecified),,9.85,
Cc1ccc(N2C(=O)c3ccccc3C2Nc2ccc(S(=O)(=O)N3CCCCC3)cc2)nc1 (stereo unspecified),,-8.54,
O=C1CC(Nc2cc(=O)[nH]c(=O)[nH]2)C(=O)N1c1ccccc1Cl (stereo unspecified),"2.59 µM [falling, full curve, poor fit]",-25.5,"2.06 µM [falling, full curve]"
COc1ccc(-c2[nH]ncc2C2N=C(N)Nc3nc4ccccc4n32)cc1 (stereo unspecified),,25.8,"11.6 µM [rising, single point]"
COc1cccc(CNC(=O)CCC2CCCN(C(=O)c3cc4ccccc4o3)C2)c1 (stereo unspecified),"29.1 µM [falling, single point]",-42.9,
O=C(c1cc2cc([N+](=O)[O-])ccc2s1)N1CCCCC1,"1.03 µM [rising, full curve]",-12.6,
CC1=C(C(=O)OCC2CCCO2)C(c2ccsc2)C2=C(CC(C)(C)CC2=O)N1 (stereo unspecified),,24.2,"29.1 µM [rising, single point]"
O=C(COC(=O)c1cncc(Br)c1)NC1CCCCCC1,,-9.77,"0.259 µM [falling, partial curve, poor fit]"
CCOCCn1c(CN2CCN(C(c3ccccc3)c3ccccc3)CC2)nc2c1c(=O)n(C)c(=O)n2C,,14.4,"3.66 µM [rising, full curve, poor fit]"
O=C(NC1CCN(C(=O)Nc2ccc(F)cc2)CC1)c1cccc(F)c1,,13.5,"16.4 µM [rising, partial curve]"
Cc1cccc(Nc2nc(-c3ccccc3)cs2)n1,,-25.9,
Cc1ccc(S(=O)(=O)/N=C(\Nc2cccc(C)c2)Nc2nc(C)cc(C)n2)cc1,,6.59,
CN(C)C(=O)N1CCC(C(=O)NCC2CCCO2)CC1 (stereo unspecified),"23.1 µM [falling, single point]",-72.4,"20.6 µM [falling, partial curve]"
Cc1cc(C)nc(NS(=O)(=O)c2ccc(Br)s2)c1,"0.0058 µM [falling, full curve, poor fit]",-4.12,"0.92 µM [rising, full curve, poor fit]"
O=C(Cc1ccc(Cl)cc1)Nc1ccc(S(=O)(=O)Nc2cnc3ccccc3n2)cc1,"29.1 µM [falling, single point]",-52.4,"29.1 µM [falling, single point]"
CC1(C)NC(=O)N(CCOCCSc2ccccc2)C1=O,"18.4 µM [falling, single point]",-37.5,"23.1 µM [falling, single point]"
CN(C(=O)COC(=O)CNC(=O)CNC(=O)c1ccc(Cl)cc1Cl)c1ccccc1,,-29.1,"22.4 µM [falling, single point]"

# Of the compounds above, four have a nitro group on carbon:
Structure (SMILES),AC50 [1],cell number change [%],AC50 [2]
O=C(Cc1cccs1)Nc1cc(SCCO)cc([N+](=O)[O-])c1,"18.4 µM [rising, single point]",31.6,"14.6 µM [rising, partial curve]"
CCCCNc1ccc(S(N)(=O)=O)cc1[N+](=O)[O-],,,"16.4 µM [rising, single point]"
Cc1ccc(CNC(=O)COC(=O)Cn2nc(C)c([N+](=O)[O-])c2C)cc1,"0.082 µM [falling, full curve, poor fit]",-8.62,
O=C(c1cc2cc([N+](=O)[O-])ccc2s1)N1CCCCC1,"1.03 µM [rising, full curve]",-12.6,
